# Laboratory results taken from the supplement of paper PMC10032668.
# Sequences of proteins named here, by UniProt entry; tags and fusion partners are left off.
# MED1, Q15648, UniProt Q15648, whole entry: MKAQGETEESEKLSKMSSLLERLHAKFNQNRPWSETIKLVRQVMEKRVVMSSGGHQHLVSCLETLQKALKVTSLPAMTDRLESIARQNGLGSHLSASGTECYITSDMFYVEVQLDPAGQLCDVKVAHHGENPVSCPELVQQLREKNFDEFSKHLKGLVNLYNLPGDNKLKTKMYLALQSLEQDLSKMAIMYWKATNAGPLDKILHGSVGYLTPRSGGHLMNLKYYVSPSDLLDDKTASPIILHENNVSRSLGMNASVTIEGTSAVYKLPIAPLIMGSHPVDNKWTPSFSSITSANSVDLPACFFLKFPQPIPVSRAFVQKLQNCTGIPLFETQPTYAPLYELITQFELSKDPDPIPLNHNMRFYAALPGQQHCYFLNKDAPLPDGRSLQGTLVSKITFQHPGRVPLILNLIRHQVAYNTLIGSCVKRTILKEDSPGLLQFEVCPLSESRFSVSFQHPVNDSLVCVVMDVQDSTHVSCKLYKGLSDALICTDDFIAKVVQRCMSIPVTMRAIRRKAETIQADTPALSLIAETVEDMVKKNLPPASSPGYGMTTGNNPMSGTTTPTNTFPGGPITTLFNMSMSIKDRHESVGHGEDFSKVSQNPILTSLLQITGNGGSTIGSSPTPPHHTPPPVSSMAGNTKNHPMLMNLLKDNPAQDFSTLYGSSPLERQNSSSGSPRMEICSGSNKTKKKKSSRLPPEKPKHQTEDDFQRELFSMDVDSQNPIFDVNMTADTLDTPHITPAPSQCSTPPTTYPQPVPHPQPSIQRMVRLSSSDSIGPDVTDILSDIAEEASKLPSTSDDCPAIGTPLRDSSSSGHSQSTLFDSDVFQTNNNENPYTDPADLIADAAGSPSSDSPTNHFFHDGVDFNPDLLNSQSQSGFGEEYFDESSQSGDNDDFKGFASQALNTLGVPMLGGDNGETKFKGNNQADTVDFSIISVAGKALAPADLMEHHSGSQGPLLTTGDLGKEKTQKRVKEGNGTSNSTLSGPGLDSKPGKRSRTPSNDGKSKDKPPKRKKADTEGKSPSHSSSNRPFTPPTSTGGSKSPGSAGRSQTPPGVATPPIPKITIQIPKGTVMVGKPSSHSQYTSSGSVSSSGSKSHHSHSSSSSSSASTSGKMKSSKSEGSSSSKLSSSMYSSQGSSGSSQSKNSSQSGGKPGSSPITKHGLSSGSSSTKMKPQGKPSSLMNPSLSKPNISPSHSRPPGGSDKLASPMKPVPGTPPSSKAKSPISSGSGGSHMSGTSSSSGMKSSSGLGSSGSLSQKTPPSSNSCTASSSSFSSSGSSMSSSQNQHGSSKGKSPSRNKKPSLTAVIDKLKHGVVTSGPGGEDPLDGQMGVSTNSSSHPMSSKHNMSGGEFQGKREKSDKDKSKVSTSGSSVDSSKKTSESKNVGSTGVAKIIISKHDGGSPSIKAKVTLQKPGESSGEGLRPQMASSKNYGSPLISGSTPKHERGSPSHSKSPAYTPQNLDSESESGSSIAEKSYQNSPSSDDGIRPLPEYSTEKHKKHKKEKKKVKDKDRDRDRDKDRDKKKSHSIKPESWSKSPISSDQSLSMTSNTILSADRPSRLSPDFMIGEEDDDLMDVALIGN
# POLR1C, O15160, UniProt O15160, whole entry: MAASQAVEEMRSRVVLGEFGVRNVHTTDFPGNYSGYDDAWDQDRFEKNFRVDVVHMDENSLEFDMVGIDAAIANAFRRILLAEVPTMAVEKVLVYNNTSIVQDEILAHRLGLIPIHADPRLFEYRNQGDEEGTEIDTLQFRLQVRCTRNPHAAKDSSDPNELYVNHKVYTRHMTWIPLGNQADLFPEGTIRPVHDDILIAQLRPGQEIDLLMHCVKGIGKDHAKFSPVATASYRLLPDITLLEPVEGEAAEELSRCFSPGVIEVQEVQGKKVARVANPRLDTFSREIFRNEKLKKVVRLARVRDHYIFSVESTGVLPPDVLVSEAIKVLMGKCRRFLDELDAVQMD
# RFC4, P35249, UniProt P35249, whole entry: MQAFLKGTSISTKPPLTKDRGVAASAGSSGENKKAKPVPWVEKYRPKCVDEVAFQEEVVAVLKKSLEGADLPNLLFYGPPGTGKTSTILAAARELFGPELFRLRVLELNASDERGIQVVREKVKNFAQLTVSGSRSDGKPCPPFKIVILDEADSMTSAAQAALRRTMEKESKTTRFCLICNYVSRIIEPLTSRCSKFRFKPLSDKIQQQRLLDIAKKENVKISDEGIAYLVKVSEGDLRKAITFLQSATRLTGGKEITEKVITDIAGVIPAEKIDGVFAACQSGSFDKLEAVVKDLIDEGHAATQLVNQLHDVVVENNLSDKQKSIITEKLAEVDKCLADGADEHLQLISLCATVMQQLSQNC
# RFC5, P40937, UniProt P40937, whole entry: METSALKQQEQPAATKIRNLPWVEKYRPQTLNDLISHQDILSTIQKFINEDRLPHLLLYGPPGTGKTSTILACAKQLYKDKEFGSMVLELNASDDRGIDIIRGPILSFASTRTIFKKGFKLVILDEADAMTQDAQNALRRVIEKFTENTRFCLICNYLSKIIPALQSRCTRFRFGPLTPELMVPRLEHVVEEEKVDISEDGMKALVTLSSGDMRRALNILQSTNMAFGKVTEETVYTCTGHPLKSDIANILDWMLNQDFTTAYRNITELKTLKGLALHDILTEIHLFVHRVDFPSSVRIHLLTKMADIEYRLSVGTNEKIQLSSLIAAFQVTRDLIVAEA
# SMC4, Q9NTJ3, UniProt Q9NTJ3, whole entry: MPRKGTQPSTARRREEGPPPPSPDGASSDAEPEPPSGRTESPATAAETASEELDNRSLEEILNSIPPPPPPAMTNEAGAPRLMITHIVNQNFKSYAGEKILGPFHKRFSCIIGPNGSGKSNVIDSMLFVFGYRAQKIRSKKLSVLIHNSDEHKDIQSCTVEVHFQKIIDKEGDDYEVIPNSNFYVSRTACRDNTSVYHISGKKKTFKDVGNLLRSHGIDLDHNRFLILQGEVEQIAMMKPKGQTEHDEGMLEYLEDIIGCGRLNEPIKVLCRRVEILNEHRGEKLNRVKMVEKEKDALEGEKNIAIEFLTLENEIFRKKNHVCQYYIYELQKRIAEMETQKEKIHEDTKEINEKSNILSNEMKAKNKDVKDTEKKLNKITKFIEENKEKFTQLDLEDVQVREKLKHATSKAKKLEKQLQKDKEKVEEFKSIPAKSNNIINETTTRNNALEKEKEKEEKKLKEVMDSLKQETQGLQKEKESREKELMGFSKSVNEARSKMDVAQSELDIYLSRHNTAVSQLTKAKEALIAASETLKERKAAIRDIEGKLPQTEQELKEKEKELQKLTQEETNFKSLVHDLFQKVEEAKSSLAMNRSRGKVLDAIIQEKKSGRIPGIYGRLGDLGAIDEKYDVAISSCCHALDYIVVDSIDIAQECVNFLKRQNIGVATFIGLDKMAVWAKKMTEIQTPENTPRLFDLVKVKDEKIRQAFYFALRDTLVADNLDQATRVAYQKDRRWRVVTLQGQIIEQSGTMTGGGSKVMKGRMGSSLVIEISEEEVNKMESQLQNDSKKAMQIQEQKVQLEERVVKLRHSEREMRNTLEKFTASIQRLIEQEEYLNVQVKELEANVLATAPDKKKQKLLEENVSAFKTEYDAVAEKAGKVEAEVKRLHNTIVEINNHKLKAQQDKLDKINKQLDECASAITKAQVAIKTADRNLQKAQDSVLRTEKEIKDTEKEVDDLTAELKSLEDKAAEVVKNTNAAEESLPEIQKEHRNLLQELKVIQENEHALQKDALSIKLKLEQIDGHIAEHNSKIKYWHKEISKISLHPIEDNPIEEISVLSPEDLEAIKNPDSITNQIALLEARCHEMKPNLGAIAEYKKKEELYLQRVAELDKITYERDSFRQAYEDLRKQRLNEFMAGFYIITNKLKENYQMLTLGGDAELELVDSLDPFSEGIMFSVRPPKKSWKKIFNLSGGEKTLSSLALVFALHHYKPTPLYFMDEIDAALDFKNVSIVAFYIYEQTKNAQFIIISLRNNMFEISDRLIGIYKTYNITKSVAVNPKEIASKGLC
# SS18, Q15532, UniProt Q15532, whole entry: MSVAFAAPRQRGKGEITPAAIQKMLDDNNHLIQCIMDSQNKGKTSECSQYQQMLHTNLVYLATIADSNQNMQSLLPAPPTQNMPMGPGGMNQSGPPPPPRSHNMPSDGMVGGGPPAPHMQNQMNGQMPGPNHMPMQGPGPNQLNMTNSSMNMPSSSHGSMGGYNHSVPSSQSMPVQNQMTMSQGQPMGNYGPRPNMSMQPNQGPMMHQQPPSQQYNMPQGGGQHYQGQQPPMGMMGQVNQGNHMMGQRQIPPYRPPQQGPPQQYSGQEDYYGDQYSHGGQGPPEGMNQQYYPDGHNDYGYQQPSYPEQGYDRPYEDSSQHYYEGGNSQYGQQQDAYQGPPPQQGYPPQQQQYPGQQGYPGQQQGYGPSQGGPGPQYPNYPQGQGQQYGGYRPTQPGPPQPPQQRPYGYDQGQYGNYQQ
# TRAPPC2L, Q9UL33, UniProt Q9UL33, whole entry: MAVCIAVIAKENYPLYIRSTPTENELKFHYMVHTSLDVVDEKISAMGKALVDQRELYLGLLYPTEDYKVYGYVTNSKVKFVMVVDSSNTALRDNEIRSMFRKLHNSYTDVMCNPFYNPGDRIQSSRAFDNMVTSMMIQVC
# The list shows a part of the results. Only hits are listed; about a third recur on repeated control peptides.
# Key:
# Test in all cases: PRISMA enrichment of interactor (LFQ) in peptide spot vs all other peptide spots (log2 fold change); higher = stronger / more specific binding of the interactor to the peptide
# [1] = molecular target: MAP7, Q14244
# Description: (§1)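 PRISMA: 15-aa overlapping tiles (offset 8 aa) of 60 microproteins, plus SOS1/GLUT1 control peptides, were spot-synthesized on cellulose membranes in triplicate. Membranes were incubated with benzonase-treated HEK293T lysate, and bound proteins were identified by LC-MS/MS with LFQ. Enrichment is the log2 fold change of each protein in one spot versus all other spots. Only interactors passing the significance cutoff are listed.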
# [2] = molecular target: MBNL1, Q9NR56
# Description: as §1
# [3] = molecular target: MED1, Q15648
# Description: as §1
# [4] = molecular target: MLEC, Q14165
# Description: as §1
# [5] = molecular target: MRPL22, Q9NWU5
# Description: as §1
# [6] = molecular target: MRPS28, Q9Y2Q9
# Description: as §1
# [7] = molecular target: MRPS33, Q9Y291
# Description: as §1
# [8] = molecular target: NOB1, Q9ULX3
# Description: as §1
# [9] = molecular target: NOL11, Q9H8H0
# Description: as §1
# [10] = molecular target: NUSAP1, Q9BXS6
# Description: as §1
# [11] = molecular target: ORC5, O43913
# Description: as §1
# [12] = molecular target: POLR1C, O15160
# Description: as §1
# [13] = molecular target: POLRMT, O00411
# Description: as §1
# [14] = molecular target: POP7, O75817
# Description: as §1
# [15] = molecular target: PPHLN1, Q8NEY8
# Description: as §1
# [16] = molecular target: PTBP3, O95758
# Description: as §1
# [17] = molecular target: QKI, Q96PU8
# Description: as §1
# [18] = molecular target: RAB2A, P61019
# Description: as §1
# [19] = molecular target: RFC4, P35249
# Description: as §1
# [20] = molecular target: RFC5, P40937
# Description: as §1
# [21] = molecular target: RIOK1, Q9BRS2
# Description: as §1
# [22] = molecular target: SEPTIN9, Q9UHD8
# Description: as §1
# [23] = molecular target: SERPINH1, P50454
# Description: as §1
# [24] = molecular target: SHMT2, P34897
# Description: as §1
# [25] = molecular target: SMC4, Q9NTJ3
# Description: as §1
# [26] = molecular target: SPATS2L, Q9NUQ6
# Description: as §1
# [27] = molecular target: SPCS2, Q15005
# Description: as §1
# [28] = molecular target: SS18, Q15532
# Description: as §1
# [29] = molecular target: STAU1, O95793
# Description: as §1
# [30] = molecular target: STK24, Q9Y6E0
# Description: as §1
# [31] = molecular target: SUPT6H, Q7KZ85
# Description: as §1
# [32] = molecular target: TEX10, Q9NXF1
# Description: as §1
# [33] = molecular target: TP53I11, O14683
# Description: as §1
# [34] = molecular target: TRAPPC2L, Q9UL33
# Description: as §1
# [35] = molecular target: TRMT112, Q9UI30
# Description: as §1
# [36] = molecular target: UGDH, O60701
# Description: as §1
# [37] = molecular target: ZC2HC1A, Q96GY0
# Description: as §1
# [38] = molecular target: ZNF146, Q15072
# Description: as §1
binder,measurement,setting,value
PALCGHLISTGLGKQ [RP11-432J24.5_2],PRISMA enrichment of interactor (log2),[1],3.96
same,PRISMA enrichment of interactor (log2),[2],4.26
same,PRISMA enrichment of interactor (log2),[3],6.91
same,PRISMA enrichment of interactor (log2),[4],4.84
same,PRISMA enrichment of interactor (log2),[5],5.46
same,PRISMA enrichment of interactor (log2),[6],6.09
same,PRISMA enrichment of interactor (log2),[7],4.05
same,PRISMA enrichment of interactor (log2),[8],5.29
same,PRISMA enrichment of interactor (log2),[9],4.31
same,PRISMA enrichment of interactor (log2),[10],6.97
same,PRISMA enrichment of interactor (log2),[11],6.99
same,PRISMA enrichment of interactor (log2),[12],5.95
same,PRISMA enrichment of interactor (log2),[13],5.82
same,PRISMA enrichment of interactor (log2),[14],3.69
same,PRISMA enrichment of interactor (log2),[15],7.93
same,PRISMA enrichment of interactor (log2),[16],3.87
same,PRISMA enrichment of interactor (log2),[17],6.78
same,PRISMA enrichment of interactor (log2),[18],4.32
same,PRISMA enrichment of interactor (log2),[19],4.71
same,PRISMA enrichment of interactor (log2),[20],4.83
same,PRISMA enrichment of interactor (log2),[21],5.52
same,PRISMA enrichment of interactor (log2),[22],4.23
same,PRISMA enrichment of interactor (log2),[23],5.22
same,PRISMA enrichment of interactor (log2),[24],7.04
same,PRISMA enrichment of interactor (log2),[25],5.32
same,PRISMA enrichment of interactor (log2),[26],5.59
same,PRISMA enrichment of interactor (log2),[27],6.7
same,PRISMA enrichment of interactor (log2),[28],3.93
same,PRISMA enrichment of interactor (log2),[29],5.14
same,PRISMA enrichment of interactor (log2),[30],5.04
same,PRISMA enrichment of interactor (log2),[31],7.55
same,PRISMA enrichment of interactor (log2),[32],5.13
same,PRISMA enrichment of interactor (log2),[33],3.75
same,PRISMA enrichment of interactor (log2),[34],5.94
same,PRISMA enrichment of interactor (log2),[35],6.21
same,PRISMA enrichment of interactor (log2),[36],4.24
same,PRISMA enrichment of interactor (log2),[37],5.58
same,PRISMA enrichment of interactor (log2),[38],4.88

# Quoted at random: 2 entries already listed.
binder,measurement,setting,value
PALCGHLISTGLGKQ [RP11-432J24.5_2],PRISMA enrichment of interactor (log2),[14],3.69
same,PRISMA enrichment of interactor (log2),[30],5.04
